Paper doi:10.1101/2020.02.04.934398
No constants are given. Whether binding was seen depends on the method and setting. In cells and extracts the contact can be indirect. A yes stands for co-enrichment or nearness to the bait. Other partners may have been found. Tags and fused reporters may be left off the sequences shown. Values belong to the molecule of their own block, whether it stands above or below them.

Protein sequences, listed by entry. Tags and fused reporters are not part of them.
UniProt O00410: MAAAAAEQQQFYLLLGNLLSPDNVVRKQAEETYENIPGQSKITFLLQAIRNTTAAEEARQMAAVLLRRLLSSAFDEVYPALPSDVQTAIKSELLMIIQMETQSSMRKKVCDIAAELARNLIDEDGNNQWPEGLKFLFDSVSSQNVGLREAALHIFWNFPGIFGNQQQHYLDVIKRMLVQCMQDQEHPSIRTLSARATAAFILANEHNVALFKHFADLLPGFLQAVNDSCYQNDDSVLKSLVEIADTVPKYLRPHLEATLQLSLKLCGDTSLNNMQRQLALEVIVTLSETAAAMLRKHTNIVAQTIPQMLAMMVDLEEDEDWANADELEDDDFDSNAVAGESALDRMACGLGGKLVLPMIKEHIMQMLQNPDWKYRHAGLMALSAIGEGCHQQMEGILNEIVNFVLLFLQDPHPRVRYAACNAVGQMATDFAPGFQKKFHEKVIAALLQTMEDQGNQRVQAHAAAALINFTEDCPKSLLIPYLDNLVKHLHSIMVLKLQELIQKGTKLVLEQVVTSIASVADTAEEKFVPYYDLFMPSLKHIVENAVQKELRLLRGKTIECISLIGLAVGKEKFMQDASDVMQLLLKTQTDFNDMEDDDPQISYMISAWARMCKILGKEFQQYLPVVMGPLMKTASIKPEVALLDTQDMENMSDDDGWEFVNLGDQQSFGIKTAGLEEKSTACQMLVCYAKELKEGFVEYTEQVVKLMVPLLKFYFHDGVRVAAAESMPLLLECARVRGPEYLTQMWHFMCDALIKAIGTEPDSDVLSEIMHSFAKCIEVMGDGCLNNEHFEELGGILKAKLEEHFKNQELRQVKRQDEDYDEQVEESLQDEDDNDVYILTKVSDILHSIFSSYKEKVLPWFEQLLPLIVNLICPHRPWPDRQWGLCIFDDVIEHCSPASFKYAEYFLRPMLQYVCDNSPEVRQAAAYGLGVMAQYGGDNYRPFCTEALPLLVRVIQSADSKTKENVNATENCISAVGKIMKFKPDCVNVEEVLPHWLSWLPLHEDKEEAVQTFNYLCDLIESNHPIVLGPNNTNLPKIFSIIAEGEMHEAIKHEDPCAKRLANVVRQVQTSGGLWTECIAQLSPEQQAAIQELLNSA
UniProt O60216: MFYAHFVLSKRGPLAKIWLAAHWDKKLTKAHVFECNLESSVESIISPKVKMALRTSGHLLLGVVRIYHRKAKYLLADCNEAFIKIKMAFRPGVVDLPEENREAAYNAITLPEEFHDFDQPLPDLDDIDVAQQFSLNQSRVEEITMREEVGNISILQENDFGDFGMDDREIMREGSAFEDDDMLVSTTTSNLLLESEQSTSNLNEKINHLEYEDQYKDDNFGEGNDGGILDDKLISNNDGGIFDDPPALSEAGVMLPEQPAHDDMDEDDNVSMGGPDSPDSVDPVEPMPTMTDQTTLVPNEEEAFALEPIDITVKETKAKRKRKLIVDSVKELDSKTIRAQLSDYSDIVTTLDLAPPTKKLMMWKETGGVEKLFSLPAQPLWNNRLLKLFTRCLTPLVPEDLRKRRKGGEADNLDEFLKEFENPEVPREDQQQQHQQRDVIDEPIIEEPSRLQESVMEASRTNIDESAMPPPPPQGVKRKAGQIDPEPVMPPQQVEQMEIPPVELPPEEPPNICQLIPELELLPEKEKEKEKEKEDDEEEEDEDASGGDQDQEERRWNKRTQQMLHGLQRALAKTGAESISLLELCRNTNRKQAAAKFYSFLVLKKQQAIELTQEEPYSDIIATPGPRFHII
UniProt Q9UQE7: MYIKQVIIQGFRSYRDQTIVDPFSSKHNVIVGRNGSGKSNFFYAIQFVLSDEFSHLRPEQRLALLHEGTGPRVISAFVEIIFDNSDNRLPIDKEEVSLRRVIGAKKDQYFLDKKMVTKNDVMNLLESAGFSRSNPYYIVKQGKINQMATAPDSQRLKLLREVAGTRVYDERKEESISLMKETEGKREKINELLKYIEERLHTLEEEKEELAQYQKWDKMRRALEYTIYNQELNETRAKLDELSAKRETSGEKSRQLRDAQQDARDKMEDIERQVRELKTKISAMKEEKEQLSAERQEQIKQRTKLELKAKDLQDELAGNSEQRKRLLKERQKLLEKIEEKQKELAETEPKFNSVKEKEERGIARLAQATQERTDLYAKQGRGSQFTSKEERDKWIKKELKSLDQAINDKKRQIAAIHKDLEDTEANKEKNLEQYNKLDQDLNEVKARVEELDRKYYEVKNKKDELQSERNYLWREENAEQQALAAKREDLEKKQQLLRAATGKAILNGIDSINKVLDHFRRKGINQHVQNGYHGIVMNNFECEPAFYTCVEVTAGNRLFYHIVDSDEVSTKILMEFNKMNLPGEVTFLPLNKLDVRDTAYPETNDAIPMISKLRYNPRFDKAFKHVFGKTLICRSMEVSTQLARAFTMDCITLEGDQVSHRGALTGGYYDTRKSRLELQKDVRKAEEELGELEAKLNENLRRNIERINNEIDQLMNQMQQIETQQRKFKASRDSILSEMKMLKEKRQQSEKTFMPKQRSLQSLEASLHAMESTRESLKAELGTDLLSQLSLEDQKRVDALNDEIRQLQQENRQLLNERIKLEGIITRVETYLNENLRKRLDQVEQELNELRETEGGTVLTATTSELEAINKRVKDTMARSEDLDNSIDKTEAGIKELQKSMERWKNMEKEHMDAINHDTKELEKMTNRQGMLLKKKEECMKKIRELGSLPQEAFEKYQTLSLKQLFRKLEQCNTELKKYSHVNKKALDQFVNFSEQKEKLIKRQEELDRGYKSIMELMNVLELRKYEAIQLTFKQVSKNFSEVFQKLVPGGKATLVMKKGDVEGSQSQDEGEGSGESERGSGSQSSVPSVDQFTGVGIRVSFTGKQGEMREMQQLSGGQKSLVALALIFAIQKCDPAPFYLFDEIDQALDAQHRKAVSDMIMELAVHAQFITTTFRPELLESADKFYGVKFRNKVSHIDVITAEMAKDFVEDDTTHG
UniProt P12270: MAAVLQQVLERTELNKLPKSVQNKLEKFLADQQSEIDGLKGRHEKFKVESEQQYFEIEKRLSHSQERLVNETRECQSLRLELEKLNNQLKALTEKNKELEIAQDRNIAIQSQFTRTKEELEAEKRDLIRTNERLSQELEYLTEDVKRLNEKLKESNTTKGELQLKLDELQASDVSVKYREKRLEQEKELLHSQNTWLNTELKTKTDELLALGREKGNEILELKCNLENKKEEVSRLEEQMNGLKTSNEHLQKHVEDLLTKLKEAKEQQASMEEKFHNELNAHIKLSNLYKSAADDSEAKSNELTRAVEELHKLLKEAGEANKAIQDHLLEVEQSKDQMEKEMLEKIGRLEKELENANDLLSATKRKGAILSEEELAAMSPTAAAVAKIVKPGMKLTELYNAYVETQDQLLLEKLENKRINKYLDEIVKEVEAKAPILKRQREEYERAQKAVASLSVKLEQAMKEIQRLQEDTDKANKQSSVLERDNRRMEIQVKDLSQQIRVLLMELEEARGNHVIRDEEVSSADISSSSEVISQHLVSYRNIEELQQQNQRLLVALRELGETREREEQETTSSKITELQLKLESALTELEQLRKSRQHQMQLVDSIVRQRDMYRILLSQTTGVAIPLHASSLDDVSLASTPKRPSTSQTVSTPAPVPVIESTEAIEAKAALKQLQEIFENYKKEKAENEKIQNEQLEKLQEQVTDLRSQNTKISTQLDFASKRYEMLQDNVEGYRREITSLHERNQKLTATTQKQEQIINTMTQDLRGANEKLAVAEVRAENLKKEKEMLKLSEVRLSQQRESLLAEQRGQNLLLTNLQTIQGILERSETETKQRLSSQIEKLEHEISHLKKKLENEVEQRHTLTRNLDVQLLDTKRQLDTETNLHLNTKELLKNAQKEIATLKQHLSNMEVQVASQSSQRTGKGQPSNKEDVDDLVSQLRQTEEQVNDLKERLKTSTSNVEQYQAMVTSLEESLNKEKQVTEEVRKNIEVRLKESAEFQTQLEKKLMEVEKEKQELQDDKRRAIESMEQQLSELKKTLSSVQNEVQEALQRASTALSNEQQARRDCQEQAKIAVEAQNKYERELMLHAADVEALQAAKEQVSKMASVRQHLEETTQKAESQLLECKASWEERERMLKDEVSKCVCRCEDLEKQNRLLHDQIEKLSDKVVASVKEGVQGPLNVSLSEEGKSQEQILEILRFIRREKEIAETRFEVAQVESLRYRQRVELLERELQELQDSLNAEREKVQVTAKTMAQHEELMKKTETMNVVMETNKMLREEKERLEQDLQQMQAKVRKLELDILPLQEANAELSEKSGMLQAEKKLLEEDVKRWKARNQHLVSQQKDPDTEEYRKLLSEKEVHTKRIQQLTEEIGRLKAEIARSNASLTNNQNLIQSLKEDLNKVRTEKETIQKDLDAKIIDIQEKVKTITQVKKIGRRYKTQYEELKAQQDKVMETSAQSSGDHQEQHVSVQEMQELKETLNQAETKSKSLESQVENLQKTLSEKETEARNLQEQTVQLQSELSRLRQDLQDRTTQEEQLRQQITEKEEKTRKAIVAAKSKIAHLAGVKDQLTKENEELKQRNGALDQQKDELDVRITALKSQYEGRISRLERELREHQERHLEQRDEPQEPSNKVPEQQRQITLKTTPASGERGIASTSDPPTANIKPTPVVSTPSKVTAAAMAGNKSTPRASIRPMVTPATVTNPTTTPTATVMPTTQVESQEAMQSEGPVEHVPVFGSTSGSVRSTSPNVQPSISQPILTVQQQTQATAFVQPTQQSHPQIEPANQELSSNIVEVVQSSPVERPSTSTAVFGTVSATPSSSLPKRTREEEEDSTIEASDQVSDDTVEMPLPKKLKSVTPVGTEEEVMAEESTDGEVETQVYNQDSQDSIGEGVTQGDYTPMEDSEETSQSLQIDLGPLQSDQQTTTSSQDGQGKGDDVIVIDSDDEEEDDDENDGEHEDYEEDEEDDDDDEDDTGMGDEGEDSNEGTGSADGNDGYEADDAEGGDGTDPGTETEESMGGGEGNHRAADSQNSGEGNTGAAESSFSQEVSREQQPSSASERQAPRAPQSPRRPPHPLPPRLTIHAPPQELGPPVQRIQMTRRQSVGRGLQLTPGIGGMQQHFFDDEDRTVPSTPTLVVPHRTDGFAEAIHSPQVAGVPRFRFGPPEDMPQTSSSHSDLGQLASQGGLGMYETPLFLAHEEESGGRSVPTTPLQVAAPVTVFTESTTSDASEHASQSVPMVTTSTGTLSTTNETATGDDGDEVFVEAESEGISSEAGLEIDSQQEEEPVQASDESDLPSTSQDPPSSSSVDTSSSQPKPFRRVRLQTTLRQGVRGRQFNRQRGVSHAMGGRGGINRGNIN
UniProt O14980: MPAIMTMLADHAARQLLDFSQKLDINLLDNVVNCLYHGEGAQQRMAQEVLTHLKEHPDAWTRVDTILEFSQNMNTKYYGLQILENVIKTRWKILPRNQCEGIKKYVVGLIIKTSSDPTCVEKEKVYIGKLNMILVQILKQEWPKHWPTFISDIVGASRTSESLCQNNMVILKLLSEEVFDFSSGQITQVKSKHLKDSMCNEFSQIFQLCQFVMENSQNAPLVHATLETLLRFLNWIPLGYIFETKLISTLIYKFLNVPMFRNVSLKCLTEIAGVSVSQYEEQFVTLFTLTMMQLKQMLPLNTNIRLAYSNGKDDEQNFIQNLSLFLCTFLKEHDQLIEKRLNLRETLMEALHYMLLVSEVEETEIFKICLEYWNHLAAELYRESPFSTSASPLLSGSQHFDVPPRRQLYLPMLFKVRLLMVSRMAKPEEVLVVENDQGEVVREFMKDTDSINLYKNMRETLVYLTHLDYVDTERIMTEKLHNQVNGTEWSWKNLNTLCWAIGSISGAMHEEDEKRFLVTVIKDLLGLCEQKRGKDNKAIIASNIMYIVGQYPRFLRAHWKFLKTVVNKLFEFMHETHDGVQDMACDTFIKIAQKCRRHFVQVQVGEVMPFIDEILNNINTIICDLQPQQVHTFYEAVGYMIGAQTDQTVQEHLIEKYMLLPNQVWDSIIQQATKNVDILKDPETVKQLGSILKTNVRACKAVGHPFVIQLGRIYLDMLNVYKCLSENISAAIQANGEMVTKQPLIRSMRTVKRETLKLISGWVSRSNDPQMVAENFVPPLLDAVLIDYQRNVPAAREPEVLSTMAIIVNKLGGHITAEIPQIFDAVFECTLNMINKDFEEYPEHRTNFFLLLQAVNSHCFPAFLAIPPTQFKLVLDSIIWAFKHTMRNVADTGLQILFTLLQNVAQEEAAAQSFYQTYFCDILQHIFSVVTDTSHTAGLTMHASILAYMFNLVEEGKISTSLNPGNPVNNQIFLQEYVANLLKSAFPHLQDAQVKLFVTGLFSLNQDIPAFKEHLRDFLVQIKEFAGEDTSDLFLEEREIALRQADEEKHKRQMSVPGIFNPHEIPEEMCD

Target: T1, FLAG-tagged mouse Nucleoporin 153 (mouse) (UniProt E9Q3G8)
T1 sequence: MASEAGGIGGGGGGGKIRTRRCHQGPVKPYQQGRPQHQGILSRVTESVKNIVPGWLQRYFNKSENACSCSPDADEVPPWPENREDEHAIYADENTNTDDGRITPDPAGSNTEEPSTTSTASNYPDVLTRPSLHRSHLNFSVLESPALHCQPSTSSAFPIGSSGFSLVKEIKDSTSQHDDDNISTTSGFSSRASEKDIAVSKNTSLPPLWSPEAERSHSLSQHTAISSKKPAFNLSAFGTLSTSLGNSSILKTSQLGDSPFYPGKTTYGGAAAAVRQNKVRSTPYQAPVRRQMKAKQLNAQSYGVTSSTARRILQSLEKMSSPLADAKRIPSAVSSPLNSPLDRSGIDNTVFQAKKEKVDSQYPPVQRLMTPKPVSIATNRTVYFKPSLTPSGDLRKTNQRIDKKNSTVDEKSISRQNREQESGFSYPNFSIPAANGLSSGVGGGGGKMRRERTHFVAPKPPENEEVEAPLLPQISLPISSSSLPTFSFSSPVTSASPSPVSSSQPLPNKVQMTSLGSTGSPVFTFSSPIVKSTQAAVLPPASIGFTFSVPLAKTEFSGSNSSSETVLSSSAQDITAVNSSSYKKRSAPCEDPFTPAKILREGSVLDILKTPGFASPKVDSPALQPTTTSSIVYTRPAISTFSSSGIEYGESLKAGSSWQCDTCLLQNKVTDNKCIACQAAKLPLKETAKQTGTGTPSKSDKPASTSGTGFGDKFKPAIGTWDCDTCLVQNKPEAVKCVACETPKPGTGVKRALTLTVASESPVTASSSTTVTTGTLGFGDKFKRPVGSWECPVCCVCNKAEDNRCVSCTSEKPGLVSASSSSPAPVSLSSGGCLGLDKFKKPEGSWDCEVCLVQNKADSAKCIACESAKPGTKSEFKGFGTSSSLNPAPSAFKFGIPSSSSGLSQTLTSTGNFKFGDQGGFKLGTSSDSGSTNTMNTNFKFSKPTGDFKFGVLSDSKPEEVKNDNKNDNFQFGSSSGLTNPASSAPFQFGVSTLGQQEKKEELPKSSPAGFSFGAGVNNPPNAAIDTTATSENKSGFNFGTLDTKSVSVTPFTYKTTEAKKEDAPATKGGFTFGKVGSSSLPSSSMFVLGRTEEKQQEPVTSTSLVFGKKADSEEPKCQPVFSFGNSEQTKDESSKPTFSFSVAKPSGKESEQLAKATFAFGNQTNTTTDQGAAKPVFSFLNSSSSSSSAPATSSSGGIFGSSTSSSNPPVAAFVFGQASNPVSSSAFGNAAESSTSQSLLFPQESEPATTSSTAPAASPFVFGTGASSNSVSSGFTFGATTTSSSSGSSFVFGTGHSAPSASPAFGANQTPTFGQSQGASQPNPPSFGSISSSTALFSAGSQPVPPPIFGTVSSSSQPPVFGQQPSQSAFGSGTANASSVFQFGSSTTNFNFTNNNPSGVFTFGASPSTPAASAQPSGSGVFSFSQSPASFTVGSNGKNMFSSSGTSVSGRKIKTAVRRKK
Experiment: affinity purification with mass spectrometry

binding: binds
Molecule: IPO5 (from UniProt O00410 1-1097)

binding: binds
Molecule: RAD21 (from UniProt O60216 1-631)

binding: binds
Molecule: SMC3 (from UniProt Q9UQE7 1-1217)

binding: binds
Molecule: TNPO1 (from UniProt Q92973 1-898)

binding: binds
Molecule: TPR (from UniProt P12270 1-2363)

binding: binds
Molecule: XPO-1 (from UniProt O14980 1-1071)

binding: binds
B1: SMC1A (protein, UniProt Q14683 1-1233)
chain: MGFLKLIEIENFKSYKGRQIIGPFQRFTAIIGPNGSGKSNLMDAISFVLGEKTSNLRVKTLRDLIHGAPVGKPAANRAFVSMVYSEEGAEDRTFARVIVGGSSEYKINNKVVQLHEYSEELEKLGILIKARNFLVFQGAVESIAMKNPKERTALFEEISRSGELAQEYDKRKKEMVKAEEDTQFNYHRKKNIAAERKEAKQEKEEADRYQRLKDEVVRAQVQLQLFKLYHNEVEIEKLNKELASKNKEIEKDKKRMDKVEDELKEKKKELGKMMREQQQIEKEIKEKDSELNQKRPQYIKAKENTSHKIKKLEAAKKSLQNAQKHYKKRKGDMDELEKEMLSVEKARQEFEERMEEESQSQGRDLTLEENQVKKYHRLKEEASKRAATLAQELEKFNRDQKADQDRLDLEERKKVETEAKIKQKLREIEENQKRIEKLEEYITTSKQSLEEQKKLEGELTEEVEMAKRRIDEINKELNQVMEQLGDARIDRQESSRQQRKAEIMESIKRLYPGSVYGRLIDLCQPTQKKYQIAVTKVLGKNMDAIIVDSEKTGRDCIQYIKEQRGEPETFLPLDYLEVKPTDEKLRELKGAKLVIDVIRYEPPHIKKALQYACGNALVCDNVEDARRIAFGGHQRHKTVALDGTLFQKSGVISGGASDLKAKARRWDEKAVDKLKEKKERLTEELKEQMKAKRKEAELRQVQSQAHGLQMRLKYSQSDLEQTKTRHLALNLQEKSKLESELANFGPRINDIKRIIQSREREMKDLKEKMNQVEDEVFEEFCREIGVRNIREFEEEKVKRQNEIAKKRLEFENQKTRLGIQLDFEKNQLKEDQDKVHMWEQTVKKDENEIEKLKKEEQRHMKIIDETMAQLQDLKNQHLAKKSEVNDKNHEMEEIRKKLGGANKEMTHLQKEVTAIETKLEQKRSDRHNLLQACKMQDIKLPLSKGTMDDISQEEGSSQGEDSVSGSQRISSIYAREALIEIDYGDLCEDLKDAQAEEEIKQEMNTLQQKLNEQQSVLQRIAAPNMKAMEKLESVRDKFQETSDEFEAARKRAKKAKQAFEQIKKERFDRFNACFESVATNIDEIYKALSRNSSAQAFLGPENPEEPYLDGINYNCVAPGKRFRPMDNLSGGEKTVAALALLFAIHSYKPAPFFVLDEIDAALDNTNIGKVANYIKEQSTCNFQAIVISLKEEFYTKAESLIGVYPEQGDCVISKVLTFDLTKYPDANPNPNEQ
